# Measurements published in article PMC12337289, “Cryo-EM structure and polar assembly of the PS2 S-layer of Corynebacterium glutamicum” (Proceedings of the National Academy of Sciences of the …, 2025).
# These are yes or no findings as the source states them, for the method shown. Some binding calls cover weakened binding; strength is not graded here.
# B1: PS2 full-length variant (PS2^FL; residues 30 to 510), recombinant (protein, UniProt Q04985 30-510)
# chain: AQETNPTFNITNGFNDADGSTIQPVGPVNHTEETLRDLTDSTGAYLEEFQNGTVEEIVEAYLQVQASADGFDPSEQAAYEAFEAARVRASQELAASAETITKTRESVAYALKVDQEATAAFEAYRNALRDAAISINPDGSINPDTSINLLIDAANAANRTDRAEIEDYAHLYTQTDIALETPQLAYAFQDLKALQAEVDADFEWLGEFGIDQEDGNYVQRYHLPAVEALKAEVDARVAAIEPLRADSIAKNLEAQKSDVLVRQLFLERATAQRDTLRVVEAIFSTSARYVELYENVENVNVENKTLRQHYSALIPNLFIAAVANISELNAADAEAAAYYLHWDTDLATNDEDEAYYKAKLDFAIETYAKILFNGEVWQEPLAYVQNLDAGARQEAADREAARAADEAYRAEQLRIAQEAADAQKAIAEALAKEAEGNNDNSSDNTETGSSDIGSWGPFAAIAAIIAAIAAIFPFLSGIVKF
# Target: PS2 full-length variant (PS2^FL; residues 30 to 510), recombinant (C. glutamicum) (UniProt Q04985)
# Test: negative-stain electron microscopy of isolated S-layer sheets; insoluble fraction of E. coli expressing PS2^FL, associated with vesicle-like structures
binder,measurement,value
B1,binding,binds
